# No constants are given. Whether binding was seen depends on the method and setting. For some assays here: Sequences can lack the tags named with a protein.
# The chains behind the UniProt entries cited, without tags or fusion partners. Where a name states a change or a piece, a line headed by the entry shows the natural chain unless it says otherwise.
# UniProt P51149: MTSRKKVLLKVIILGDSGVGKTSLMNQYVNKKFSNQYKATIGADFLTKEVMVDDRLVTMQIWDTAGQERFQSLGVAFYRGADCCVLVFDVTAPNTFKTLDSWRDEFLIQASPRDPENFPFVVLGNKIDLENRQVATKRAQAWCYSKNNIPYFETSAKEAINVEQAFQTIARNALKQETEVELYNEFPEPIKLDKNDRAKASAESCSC
# UniProt Q709C8: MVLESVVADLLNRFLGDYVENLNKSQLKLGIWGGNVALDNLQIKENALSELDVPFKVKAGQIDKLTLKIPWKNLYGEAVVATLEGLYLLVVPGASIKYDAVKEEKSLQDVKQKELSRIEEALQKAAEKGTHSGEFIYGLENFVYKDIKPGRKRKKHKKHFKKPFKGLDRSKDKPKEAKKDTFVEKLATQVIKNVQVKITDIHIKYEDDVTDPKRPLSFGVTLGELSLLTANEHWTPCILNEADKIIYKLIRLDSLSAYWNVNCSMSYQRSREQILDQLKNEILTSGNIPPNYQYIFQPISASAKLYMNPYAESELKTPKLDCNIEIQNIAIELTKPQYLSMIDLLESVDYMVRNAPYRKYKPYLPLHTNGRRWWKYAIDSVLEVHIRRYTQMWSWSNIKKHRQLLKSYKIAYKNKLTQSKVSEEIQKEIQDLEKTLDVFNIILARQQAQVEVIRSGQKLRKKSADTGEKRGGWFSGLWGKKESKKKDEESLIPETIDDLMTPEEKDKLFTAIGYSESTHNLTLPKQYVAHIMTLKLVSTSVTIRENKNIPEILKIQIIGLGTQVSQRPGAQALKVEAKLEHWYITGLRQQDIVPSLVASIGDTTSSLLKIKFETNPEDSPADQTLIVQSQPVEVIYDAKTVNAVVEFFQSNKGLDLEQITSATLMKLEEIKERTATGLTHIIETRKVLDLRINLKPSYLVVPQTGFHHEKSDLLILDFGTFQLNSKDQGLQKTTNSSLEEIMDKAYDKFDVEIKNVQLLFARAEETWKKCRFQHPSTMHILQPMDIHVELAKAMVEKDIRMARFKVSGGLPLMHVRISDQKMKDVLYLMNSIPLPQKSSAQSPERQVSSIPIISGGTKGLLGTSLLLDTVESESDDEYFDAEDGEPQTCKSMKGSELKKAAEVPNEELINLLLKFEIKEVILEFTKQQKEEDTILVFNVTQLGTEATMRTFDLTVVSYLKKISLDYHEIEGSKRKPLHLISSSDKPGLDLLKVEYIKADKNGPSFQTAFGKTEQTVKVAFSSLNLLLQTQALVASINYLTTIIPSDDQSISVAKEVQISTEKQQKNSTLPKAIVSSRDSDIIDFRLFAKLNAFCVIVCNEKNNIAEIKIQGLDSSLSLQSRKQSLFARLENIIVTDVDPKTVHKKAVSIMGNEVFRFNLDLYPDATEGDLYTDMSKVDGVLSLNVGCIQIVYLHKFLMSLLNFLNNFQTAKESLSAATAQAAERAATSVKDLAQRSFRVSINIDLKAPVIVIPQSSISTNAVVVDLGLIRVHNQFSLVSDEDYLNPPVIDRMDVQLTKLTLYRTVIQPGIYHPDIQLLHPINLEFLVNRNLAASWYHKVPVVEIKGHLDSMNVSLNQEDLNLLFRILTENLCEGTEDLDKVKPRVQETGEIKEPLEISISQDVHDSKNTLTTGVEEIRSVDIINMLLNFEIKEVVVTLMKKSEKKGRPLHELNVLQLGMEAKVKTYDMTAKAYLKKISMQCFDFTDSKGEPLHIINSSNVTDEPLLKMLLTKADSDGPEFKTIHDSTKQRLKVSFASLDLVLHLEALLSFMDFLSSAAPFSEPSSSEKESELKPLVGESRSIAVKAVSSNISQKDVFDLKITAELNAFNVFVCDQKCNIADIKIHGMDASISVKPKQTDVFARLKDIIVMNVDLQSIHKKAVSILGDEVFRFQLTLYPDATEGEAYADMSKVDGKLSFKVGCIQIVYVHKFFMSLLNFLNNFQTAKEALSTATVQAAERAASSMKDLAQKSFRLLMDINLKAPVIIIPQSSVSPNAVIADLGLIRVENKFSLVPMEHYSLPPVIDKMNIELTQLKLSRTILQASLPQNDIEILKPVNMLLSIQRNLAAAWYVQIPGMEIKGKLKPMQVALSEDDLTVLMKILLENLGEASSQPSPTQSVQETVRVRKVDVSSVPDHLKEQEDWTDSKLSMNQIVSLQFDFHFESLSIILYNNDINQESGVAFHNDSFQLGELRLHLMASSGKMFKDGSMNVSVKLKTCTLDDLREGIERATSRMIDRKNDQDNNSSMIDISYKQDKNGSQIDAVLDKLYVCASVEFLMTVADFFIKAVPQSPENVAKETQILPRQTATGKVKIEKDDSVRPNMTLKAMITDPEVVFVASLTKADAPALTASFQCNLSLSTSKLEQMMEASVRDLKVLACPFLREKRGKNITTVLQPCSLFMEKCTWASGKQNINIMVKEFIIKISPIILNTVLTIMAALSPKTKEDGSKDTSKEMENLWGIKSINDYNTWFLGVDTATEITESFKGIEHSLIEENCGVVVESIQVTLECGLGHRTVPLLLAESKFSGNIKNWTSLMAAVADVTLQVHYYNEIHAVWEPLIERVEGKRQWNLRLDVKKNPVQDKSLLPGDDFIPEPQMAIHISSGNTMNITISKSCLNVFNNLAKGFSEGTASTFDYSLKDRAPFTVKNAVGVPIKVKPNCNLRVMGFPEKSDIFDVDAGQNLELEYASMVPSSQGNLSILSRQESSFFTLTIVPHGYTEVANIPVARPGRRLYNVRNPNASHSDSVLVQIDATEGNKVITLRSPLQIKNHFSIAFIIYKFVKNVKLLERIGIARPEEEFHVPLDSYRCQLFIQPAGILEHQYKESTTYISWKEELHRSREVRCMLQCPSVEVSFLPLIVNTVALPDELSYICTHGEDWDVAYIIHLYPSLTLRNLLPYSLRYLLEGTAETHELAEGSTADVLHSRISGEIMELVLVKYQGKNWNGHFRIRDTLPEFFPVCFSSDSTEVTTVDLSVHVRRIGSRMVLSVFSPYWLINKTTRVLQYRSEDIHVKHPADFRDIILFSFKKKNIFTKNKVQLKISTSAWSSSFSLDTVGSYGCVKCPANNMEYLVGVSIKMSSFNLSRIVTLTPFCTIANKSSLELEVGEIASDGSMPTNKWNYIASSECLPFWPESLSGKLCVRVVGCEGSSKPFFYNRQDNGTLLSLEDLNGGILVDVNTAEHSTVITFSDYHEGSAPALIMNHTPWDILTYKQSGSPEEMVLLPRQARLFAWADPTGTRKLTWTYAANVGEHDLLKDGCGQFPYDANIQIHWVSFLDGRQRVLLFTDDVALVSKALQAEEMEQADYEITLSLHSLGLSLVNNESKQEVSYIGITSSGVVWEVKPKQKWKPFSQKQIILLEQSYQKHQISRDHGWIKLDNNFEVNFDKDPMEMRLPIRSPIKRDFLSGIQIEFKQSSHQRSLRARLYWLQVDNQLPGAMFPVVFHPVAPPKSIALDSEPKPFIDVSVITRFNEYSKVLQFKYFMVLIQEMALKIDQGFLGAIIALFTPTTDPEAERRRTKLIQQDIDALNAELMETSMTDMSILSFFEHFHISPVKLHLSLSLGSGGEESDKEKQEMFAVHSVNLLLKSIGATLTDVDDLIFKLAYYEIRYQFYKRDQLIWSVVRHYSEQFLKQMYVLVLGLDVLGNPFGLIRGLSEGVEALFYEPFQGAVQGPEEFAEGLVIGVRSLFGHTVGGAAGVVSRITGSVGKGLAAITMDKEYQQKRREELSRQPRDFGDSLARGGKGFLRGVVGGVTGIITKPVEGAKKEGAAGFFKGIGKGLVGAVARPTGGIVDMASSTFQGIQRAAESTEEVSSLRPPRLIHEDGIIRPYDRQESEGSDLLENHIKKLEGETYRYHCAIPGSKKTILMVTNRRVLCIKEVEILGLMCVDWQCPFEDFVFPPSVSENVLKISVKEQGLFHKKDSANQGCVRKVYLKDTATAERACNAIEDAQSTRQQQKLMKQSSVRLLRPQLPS
# Key:
# 6xHis-ATG7 = biological target: T1, 6xHis-ATG7 (UniProt O95352); experiment: liposome co-flotation; purified VPS13C constructs with SUVs (5% DGS-NTA) bearing His-tagged protein, 1 mM GTP, 2 mM Mg2+, room temperature 20 min; OptiPrep gradient, top fraction by SDS-PAGE; both purified
# T1 sequence: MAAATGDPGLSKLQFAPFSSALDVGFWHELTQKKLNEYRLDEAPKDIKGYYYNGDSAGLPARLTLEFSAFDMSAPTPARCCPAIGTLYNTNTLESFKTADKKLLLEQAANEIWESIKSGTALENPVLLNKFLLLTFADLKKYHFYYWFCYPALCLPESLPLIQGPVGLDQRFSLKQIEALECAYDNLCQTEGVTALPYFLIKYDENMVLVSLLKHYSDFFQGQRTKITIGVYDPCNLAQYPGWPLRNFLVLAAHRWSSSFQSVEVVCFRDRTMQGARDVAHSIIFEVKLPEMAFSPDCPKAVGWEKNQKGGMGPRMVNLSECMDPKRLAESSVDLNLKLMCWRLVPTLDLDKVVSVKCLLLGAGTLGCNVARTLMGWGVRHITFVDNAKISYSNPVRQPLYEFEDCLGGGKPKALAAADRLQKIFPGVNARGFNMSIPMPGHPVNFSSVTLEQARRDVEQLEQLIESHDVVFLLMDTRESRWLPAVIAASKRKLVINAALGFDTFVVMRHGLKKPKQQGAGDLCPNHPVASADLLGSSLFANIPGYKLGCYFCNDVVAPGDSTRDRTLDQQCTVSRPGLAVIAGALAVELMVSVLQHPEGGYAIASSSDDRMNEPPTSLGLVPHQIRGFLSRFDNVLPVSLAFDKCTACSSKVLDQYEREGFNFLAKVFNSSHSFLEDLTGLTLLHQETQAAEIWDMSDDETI
# [1] = biological target: Rab7A(T22N)-6xHis (human) (UniProt P51149); experiment: as above
substance,measurement,setting,value
VPS13C-ΔATG2C-3xFLAG (from UniProt Q709C8),binding,6xHis-ATG7,no binding
same,binding,[1],no binding

# Reference: publication PMC13430412
